Data as given in the supplement of paper PMC12823440, “Inhibitors supercharge kinase turnover through native proteolytic circuits” (Nature, 2025).
Structures can show the parent of a compound that is named as a salt. The list shows a part of the results. Hit calls seldom repeat between salt and free forms of one compound.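 Kinases were expressed as nanoluciferase fusions in K562 cells and luminescence was read every 4 h between 2 and 18 h as percent of control, DMSO set to 100% and a positive control to 0%. A time point counts as decreased when the signal drops significantly (2 sigma). The hit call is the authors' own, does not follow from the count of time points alone, and its rule is not shown.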

Protein sequences, listed by entry. Tags and fused reporters are not part of them. Lines headed by an entry give the natural chain unless they say otherwise; changes in a name come on top.
UniProt P48729: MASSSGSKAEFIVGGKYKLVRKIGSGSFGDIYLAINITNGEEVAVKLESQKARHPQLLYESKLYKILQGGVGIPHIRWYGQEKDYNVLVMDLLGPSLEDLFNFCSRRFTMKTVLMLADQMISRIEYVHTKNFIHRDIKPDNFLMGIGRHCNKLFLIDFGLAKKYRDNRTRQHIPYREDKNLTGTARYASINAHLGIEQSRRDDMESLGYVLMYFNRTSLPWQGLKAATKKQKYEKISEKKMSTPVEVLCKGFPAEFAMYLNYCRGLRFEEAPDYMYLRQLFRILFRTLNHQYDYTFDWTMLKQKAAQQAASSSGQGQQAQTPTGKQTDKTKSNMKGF
UniProt P48730: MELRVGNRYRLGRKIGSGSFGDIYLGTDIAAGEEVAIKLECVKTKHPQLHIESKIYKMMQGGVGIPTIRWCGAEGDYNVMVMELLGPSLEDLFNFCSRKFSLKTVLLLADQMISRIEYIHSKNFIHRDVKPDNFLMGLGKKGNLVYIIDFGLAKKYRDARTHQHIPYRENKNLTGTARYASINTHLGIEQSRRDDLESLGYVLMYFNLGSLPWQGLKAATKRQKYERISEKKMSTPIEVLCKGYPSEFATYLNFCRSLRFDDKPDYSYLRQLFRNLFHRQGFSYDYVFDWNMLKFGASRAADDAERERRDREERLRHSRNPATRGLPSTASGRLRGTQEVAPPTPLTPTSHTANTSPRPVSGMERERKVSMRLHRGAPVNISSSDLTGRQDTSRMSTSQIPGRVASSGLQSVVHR
UniProt Q92630: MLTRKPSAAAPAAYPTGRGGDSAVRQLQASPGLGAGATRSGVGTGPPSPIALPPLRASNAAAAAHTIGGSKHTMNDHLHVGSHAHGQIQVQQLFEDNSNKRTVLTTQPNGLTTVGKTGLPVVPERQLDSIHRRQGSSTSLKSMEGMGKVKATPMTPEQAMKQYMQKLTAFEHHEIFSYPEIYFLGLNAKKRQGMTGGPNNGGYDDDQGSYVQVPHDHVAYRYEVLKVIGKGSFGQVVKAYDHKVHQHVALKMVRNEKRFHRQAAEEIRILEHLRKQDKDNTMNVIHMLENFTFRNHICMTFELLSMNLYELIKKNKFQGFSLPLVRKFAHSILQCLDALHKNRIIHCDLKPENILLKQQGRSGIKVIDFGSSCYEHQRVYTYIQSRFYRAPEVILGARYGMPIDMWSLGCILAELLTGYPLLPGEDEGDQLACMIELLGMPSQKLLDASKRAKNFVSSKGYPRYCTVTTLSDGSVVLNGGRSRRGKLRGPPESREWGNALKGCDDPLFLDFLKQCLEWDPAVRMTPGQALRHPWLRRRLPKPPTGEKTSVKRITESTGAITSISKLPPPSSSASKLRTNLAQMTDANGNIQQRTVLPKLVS
UniProt Q15303, whole entry R711C: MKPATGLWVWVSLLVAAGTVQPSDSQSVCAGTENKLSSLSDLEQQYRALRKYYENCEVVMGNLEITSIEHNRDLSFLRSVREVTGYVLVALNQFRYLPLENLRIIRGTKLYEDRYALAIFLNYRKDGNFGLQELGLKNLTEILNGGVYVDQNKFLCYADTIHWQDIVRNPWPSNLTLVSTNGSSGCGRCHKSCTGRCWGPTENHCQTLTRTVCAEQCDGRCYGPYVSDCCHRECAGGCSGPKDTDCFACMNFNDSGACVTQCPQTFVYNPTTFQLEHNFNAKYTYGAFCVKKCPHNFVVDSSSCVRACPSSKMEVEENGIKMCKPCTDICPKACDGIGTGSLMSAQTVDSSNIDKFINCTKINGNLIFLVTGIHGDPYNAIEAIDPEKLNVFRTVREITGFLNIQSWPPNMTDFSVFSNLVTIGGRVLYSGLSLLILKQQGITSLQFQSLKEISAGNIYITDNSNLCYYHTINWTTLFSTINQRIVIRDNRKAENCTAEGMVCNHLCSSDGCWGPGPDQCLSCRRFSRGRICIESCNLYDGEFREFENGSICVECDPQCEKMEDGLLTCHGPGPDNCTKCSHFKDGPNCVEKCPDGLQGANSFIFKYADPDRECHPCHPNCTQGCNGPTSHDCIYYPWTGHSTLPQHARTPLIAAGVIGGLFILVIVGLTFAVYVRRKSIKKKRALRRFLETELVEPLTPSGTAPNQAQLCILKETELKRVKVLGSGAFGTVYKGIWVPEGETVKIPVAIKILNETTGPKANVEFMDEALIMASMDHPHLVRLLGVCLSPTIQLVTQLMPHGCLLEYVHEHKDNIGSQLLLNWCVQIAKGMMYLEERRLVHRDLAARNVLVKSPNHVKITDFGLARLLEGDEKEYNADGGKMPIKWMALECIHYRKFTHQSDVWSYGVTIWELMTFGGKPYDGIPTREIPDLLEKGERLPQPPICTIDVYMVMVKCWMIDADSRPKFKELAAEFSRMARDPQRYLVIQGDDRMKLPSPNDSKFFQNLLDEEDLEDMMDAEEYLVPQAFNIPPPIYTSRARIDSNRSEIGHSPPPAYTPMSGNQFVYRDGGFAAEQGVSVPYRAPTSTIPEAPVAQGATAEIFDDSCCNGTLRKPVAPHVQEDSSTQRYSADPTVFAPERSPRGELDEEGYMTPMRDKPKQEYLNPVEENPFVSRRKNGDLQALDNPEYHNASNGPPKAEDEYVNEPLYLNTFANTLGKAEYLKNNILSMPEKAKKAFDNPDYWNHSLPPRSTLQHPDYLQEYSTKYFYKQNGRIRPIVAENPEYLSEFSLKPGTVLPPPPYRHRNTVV
UniProt O75460: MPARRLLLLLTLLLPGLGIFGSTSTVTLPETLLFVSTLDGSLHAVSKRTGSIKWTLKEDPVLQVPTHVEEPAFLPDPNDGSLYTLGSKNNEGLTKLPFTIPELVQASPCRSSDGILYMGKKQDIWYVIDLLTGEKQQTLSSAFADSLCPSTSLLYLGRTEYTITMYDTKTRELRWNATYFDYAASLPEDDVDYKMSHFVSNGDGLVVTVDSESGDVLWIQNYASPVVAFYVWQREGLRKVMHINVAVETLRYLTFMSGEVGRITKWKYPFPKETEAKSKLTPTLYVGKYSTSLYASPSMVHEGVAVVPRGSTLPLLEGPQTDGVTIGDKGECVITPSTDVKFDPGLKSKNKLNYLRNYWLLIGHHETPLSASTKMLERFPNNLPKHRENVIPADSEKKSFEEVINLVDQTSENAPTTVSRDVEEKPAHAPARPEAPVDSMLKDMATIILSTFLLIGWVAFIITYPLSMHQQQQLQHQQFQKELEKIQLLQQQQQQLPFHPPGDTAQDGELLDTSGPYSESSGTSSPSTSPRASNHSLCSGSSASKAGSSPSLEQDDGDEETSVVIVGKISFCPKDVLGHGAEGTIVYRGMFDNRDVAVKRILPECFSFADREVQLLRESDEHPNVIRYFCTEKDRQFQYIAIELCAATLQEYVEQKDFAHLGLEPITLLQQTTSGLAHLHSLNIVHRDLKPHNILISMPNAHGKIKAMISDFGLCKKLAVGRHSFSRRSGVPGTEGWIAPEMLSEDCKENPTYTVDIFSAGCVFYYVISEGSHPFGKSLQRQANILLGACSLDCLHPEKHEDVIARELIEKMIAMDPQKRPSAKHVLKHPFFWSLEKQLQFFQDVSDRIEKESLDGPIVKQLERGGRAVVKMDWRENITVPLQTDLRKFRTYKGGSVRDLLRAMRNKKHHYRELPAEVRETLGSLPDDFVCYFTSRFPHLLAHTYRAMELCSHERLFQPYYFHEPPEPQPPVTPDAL
UniProt P11362, whole entry, looked up: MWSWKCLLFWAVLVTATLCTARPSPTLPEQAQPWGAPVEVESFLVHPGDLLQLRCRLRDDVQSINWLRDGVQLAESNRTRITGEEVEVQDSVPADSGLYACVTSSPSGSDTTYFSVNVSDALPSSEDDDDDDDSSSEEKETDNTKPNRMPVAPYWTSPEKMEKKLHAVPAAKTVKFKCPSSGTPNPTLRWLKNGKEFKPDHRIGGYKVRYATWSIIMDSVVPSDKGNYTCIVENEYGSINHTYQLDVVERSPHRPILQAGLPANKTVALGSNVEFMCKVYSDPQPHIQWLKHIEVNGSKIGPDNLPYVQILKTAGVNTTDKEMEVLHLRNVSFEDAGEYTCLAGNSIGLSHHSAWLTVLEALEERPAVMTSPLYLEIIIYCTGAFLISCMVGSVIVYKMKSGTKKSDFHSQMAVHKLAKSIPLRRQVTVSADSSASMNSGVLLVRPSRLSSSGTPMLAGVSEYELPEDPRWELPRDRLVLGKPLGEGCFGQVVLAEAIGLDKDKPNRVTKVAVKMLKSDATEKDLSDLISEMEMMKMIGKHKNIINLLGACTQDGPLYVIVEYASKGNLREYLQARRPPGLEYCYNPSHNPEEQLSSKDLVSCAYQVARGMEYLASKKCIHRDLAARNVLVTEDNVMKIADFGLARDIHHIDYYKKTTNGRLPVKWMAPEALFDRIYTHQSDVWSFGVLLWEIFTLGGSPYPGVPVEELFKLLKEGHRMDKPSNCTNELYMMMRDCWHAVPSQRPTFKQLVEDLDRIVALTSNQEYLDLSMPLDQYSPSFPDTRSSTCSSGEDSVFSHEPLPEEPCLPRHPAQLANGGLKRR
UniProt P21802, whole entry, looked up: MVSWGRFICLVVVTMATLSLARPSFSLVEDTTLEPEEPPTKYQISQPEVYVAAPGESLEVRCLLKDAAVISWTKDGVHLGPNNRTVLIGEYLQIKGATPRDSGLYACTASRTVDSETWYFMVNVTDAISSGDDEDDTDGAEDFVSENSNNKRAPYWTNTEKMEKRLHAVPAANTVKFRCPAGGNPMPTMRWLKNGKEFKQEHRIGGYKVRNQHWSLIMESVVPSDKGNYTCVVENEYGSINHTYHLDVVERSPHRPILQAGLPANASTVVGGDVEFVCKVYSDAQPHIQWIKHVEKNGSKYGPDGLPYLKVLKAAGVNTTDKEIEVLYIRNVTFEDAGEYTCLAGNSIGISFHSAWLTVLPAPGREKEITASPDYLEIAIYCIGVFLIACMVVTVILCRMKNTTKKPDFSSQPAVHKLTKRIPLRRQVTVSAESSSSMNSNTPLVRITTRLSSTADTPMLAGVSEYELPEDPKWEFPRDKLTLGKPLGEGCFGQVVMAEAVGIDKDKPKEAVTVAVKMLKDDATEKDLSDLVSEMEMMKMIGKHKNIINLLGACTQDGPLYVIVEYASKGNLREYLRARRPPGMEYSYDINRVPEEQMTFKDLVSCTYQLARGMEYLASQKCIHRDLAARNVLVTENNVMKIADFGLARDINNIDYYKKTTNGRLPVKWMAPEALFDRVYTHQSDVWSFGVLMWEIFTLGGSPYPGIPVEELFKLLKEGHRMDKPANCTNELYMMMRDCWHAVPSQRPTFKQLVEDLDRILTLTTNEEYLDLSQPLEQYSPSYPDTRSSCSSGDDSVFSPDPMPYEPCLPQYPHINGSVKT
UniProt P22607, whole entry, looked up: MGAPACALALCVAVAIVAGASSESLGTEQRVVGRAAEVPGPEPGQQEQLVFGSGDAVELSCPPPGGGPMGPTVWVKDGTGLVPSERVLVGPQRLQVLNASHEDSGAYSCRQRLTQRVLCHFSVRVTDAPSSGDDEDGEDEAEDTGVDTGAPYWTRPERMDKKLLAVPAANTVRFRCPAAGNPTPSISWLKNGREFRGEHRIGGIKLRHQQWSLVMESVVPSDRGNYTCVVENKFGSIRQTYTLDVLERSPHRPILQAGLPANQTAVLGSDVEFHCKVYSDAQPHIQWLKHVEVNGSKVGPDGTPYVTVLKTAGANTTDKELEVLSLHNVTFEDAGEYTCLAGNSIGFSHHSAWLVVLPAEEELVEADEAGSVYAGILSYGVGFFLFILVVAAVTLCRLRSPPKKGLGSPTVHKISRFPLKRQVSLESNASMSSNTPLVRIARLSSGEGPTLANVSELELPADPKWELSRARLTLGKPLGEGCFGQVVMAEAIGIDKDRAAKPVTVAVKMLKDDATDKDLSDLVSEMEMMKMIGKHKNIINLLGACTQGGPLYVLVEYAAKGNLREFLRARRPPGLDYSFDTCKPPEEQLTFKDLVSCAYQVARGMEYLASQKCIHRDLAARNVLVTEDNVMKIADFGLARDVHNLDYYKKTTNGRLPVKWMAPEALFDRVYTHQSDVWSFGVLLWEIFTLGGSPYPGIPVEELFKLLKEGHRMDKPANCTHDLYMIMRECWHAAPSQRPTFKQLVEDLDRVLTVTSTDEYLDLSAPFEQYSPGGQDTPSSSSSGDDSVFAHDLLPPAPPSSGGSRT

Experiments:
Assay in all cases: number of time points (of 5) at which kinase-Nluc abundance scored as decreased, DMSO-normalised (count); higher = more persistent destabilization
Details in all cases: K562; 2-18 h
CSNK1A1 = CSNK1A1 (UniProt P48729)
CSNK1D = CSNK1D (UniProt P48730)
DDR1 = DDR1 (UniProt Q08345)
DYRK1B = DYRK1B (UniProt Q9Y463)
DYRK2 = DYRK2 (UniProt Q92630)
EGFR = EGFR (UniProt P00533)
EGFR_G719S = EGFR_G719S (UniProt P00533)
EGFR_G719S_T790M = EGFR_G719S_T790M (UniProt P00533)
EGFR_L718V = EGFR_L718V (UniProt P00533)
EGFR_L858R = EGFR_L858R (UniProt P00533)
EGFR_L861Q = EGFR_L861Q (UniProt P00533)
EGFR_T790M = EGFR_T790M (UniProt P00533)
EPHA2 = EPHA2 (UniProt P29317)
ERBB3 = ERBB3 (UniProt P21860)
[1] = target: ERBB4_R711C (clone: ERBB4_mut) (UniProt Q15303)
ERN1 = ERN1 (UniProt O75460)
FGFR1 = FGFR1 (UniProt P11362)
FGFR2 = FGFR2 (UniProt P21802)
FGFR3 = FGFR3 (UniProt P22607)
FGR = FGR (UniProt P09769)

Measured: number of time points

CS(=O)(=O)c1cccc(CNc2nc(Nc3ccc4c(c3)CCC(=O)N4)ncc2C(F)(F)F)c1 (10 µM)
0: all assays above

CC(=O)O/N=C1/C(c2c(O)[nH]c3cc(Br)ccc23)=Nc2ccccc21 [BIO-acetoxime] (10 µM)
0: all assays above

CO[C@@H]1[C@H](N(C)C(=O)c2ccccc2)C[C@H]2O[C@]1(C)n1c3ccccc3c3c4c(c5c6ccccc6n2c5c31)C(=O)NC4 [Midostaurin] (2.5 µM)
2: EGFR_L861Q | FGFR1
1: DDR1 | DYRK2 | ERBB3
0: all other assays above

N#Cc1cc(-c2ccnc(Nc3ccc(N4CCOCC4)cc3)n2)ccc1OC1CCOCC1 (10 µM)
4: CSNK1A1
2: EGFR
0: all other assays above

O=C(NC[C@H](O)CO)c1ccncc1Nc1ccc(I)cc1F [Pimasertib] (10 µM)
2: DYRK2 | EGFR_G719S | EGFR_L861Q | ERBB3
3: FGFR2
0: CSNK1A1 | DYRK1B | EGFR_L718V | EPHA2 | FGFR1 | FGFR3 | FGR
1: all other assays above

CC/C(=C(\c1ccccc1)c1ccc(OCCNC)cc1)c1ccccc1 [N-Desmethyltamoxifen (hydrochloride)] (2.5 µM)
0: all assays above

C[C@@H]1CN(Cc2ccc(F)cc2)[C@@H](C)CN1C(=O)c1cc2c(C(=O)C(=O)N(C)C)cn(C)c2cc1Cl [Talmapimod] (10 µM)
0: all assays above

Nc1ccc(C(=O)Nc2cccc(-c3nc(N4CCOCC4)c4oc5ncccc5c4n3)c2)cn1 (10 µM)
5: DYRK2
0: all other assays above

3 structures from above, arranged by formula weight, high to low.
C[C@@H]1CN(Cc2ccc(F)cc2)[C@@H](C)CN1C(=O)c1cc2c(C(=O)C(=O)N(C)C)cn(C)c2cc1Cl [Talmapimod] (10 µM)
0: all assays above

Nc1ccc(C(=O)Nc2cccc(-c3nc(N4CCOCC4)c4oc5ncccc5c4n3)c2)cn1 (10 µM)
5: DYRK2
0: all other assays above

N#Cc1cc(-c2ccnc(Nc3ccc(N4CCOCC4)cc3)n2)ccc1OC1CCOCC1 (10 µM)
4: CSNK1A1
2: EGFR
0: all other assays above

(next part)

O=C1OC(COc2ccccc2[N+](=O)[O-])CC1Cc1ccccc1 (stereo not given) (10 µM)
0: all assays above

COc1c(Nc2ncc(Cl)c(N[C@H]3[C@@H](C(N)=O)[C@@H]4C=C[C@H]3C4)n2)ccc2c1CC[C@@H](N1CCOCC1)CC2 (10 µM)
0: all assays above

COc1ccc(Br)c(C=O)c1O [6-Bromo-2-hydroxy-3-methoxybenzaldehyde] (10 µM)
0: all assays above

Cc1cnc(Nc2ccc(F)cc2Cl)nc1-c1c[nH]c(C(=O)N[C@H](CO)c2cccc(Cl)c2)c1 (10 µM)
0: all assays above
